These results are taken from paper PMC7819943, “Rice protein-binding microarrays: a tool to detect cis-acting elements near promoter regions in rice”.

Some of the results follow.

The target in the test is T1, OsSMF1 (Oryza sativa, UniProt Q6ZLB0 1-436).
T1 sequence: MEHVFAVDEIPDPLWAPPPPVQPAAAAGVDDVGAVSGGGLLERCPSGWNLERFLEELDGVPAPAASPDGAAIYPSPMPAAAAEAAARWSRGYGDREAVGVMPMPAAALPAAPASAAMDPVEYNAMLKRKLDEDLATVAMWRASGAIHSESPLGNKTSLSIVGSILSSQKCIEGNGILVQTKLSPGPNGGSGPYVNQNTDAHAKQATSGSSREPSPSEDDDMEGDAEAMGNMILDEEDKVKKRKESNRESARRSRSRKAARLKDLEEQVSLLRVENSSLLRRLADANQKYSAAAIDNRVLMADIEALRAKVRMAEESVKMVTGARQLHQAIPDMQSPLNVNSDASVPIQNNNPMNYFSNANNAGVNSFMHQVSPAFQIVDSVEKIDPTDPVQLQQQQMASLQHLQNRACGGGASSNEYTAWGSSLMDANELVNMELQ
Description: protein-binding microarray (RPBM); PBS, 2% BSA, 51.3 ng/ul salmon testes DNA, 50 uM zinc acetate, 200 nM TF, 25 C, 1 h; high values mean tight binding. The note with it: protein: recombinant; tags: N-terminal polyhistidine and DsRed monomer fusion (pET32a); chain copies: 2; label: CyDye5-dUTP incorporated in the synthesized complementary strand; 3' TTTTT single-stranded linker to array surface; dsDNA, one strand shown. The gist of the method:
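The binding signal for each feature is its fluorescence intensity in arbitrary units. An Axon 4000B scanner was used to read a custom Agilent array that had been made double-stranded with Cy5-dUTP primer extension, blocked with 2% BSA, incubated at 25 °C for 1 h with 200 nM protein in PBS, 2% BSA, salmon testes DNA and 50 µM zinc acetate, and washed. The protein was an N-terminal polyhistidine–DsRed transcription factor fusion from E. coli BL21-CodonPlus, purified on Ni–NTA.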
Turning to “ATTTGGAGCGTCATGGGCTAGTTCCGCTCGGGACTAGTTCCGGAGTCACCTAGTGCAG”, the binding signal is 4390 fluorescence intensity (a.u.). Consider “TTTGCAAAGCGAGAATTCCACACAGGTTACACCAGTATATCGGAGTCACCTAGTGCAG”, for which the binding signal is 3360 fluorescence intensity (a.u.). As to “GAATTGAGTGGTTGGTTAGGTTTCTGAATGGTGGTAAGCACGGAGTCACCTAGTGCAG”, the binding signal is 3150 fluorescence intensity (a.u.). With “ATATGAGGTAGATGCATGACTCAACCACTAAACTTAGGACCGGAGTCACCTAGTGCAG” the figure was 5420 fluorescence intensity (a.u.); with “AAACAAGTACAAAGCTGCAGTCGCTGTTGATAAAGAGTTACGGAGTCACCTAGTGCAG”, 19500 fluorescence intensity (a.u.); with “TAAAAGGCATACCAACTTTCAGTGCCTATGAACTAATCTGCGGAGTCACCTAGTGCAG”, 31200 fluorescence intensity (a.u.).

As for “CTAGTAGTGGCTCTACCACACCTACATCACTTGCCTCGAGCGGAGTCACCTAGTGCAG”, the binding signal is 3280 fluorescence intensity (a.u.). As to “AACGACCGCCACGTCGCCTCCAATTCATCCCTCCCAGTGGCGGAGTCACCTAGTGCAG”, the binding signal is 26400 fluorescence intensity (a.u.). As to “GTCAGAGACACAGAAGCAAGCTGCATGCCAGCCTAACCCGCGGAGTCACCTAGTGCAG”, the binding signal is 6270 fluorescence intensity (a.u.). Turning to “GGCTAAAATATAATGTATTTTAAGATAACATTTTACACGTCGGAGTCACCTAGTGCAG”, the binding signal is 3170 fluorescence intensity (a.u.).

Take “TTTCCTCTACATAAGTTTCCACGTATACACTCGAGCAATACGGAGTCACCTAGTGCAG”: the binding signal was 9530 fluorescence intensity (a.u.). Regarding “CGCTCGTCGCCTCCACTCCGATCGCCGCCGCGCGGCAGGGCGGAGTCACCTAGTGCAG”, the binding signal is 30600 fluorescence intensity (a.u.).

In the case of “GTTGAATGAGTTTGACTACGTGGCATACACATTGGATATACGGAGTCACCTAGTGCAG”, the binding signal was 13800 fluorescence intensity (a.u.). With “TATATATATGGTCCTTCGTGTACATGTTTCCCTGATTTTCCGGAGTCACCTAGTGCAG”, the binding signal was 3790 fluorescence intensity (a.u.). Regarding “CTTGGATCCAACGGCCACGGCTCTCTCATCGCCGCGCCCCCGGAGTCACCTAGTGCAG”, the binding signal is 46100 fluorescence intensity (a.u.). With “GGTAGCAACTGCAAGGGGCAGTTGGCTGGAGCTCGGTGATCGGAGTCACCTAGTGCAG” the figure was 4370 fluorescence intensity (a.u.). Regarding “AATACCTCCTCCTATACGCTATAATTGGCATGTGTCACGTCGGAGTCACCTAGTGCAG”, the binding signal is 5430 fluorescence intensity (a.u.). As for “GATGCTGACAGTCAGGCAGGCCTCTACATGTGACAAGGCTCGGAGTCACCTAGTGCAG”, the binding signal was 5560 fluorescence intensity (a.u.).

Consider “ATGTTCAGATCTCATGATCTCATCATCACAAATCAAGTCCCGGAGTCACCTAGTGCAG”, for which the binding signal was 3750 fluorescence intensity (a.u.). As for “TATGTGGTTCTTCGTCATCACACGTTCAGTTCTATCCAAACGGAGTCACCTAGTGCAG”, the binding signal was 4780 fluorescence intensity (a.u.).

Take “TTGTATGTTTGTGGAGTGATATATTACATTTTAATCTATCCGGAGTCACCTAGTGCAG”: the binding signal is 28000 fluorescence intensity (a.u.). For the sequence “GGCTGAGTTTTCTGTGTGTTGGCATCTTGCAACTGTCGAGCGGAGTCACCTAGTGCAG”, the binding signal was 4180 fluorescence intensity (a.u.).

With “TGGTGGTCCTTAAACTTATAGGGTTATGTCATATAGGTCTCGGAGTCACCTAGTGCAG”, the binding signal was 3430 fluorescence intensity (a.u.).

As for “AAACAGCTCAAGTTGAGGCCAGGTGGACGTGCAGCCACGCCGGAGTCACCTAGTGCAG”, the binding signal was 3790 fluorescence intensity (a.u.).

As to “AAGTACATCATGACACCGATCTCACTTAACCAACACCGTGCGGAGTCACCTAGTGCAG”, the binding signal is 4410 fluorescence intensity (a.u.). Regarding “GCGGCTGTACAACACACGATCCAATGCACCGCGTCGTCACCGGAGTCACCTAGTGCAG”, the binding signal is 4160 fluorescence intensity (a.u.). With “TCTTTGTGCTGAACCGAGCCGTCATGGTCACCAGTTCCAGCGGAGTCACCTAGTGCAG”, the binding signal was 3660 fluorescence intensity (a.u.). On to “CCCATCAACGAGCCCTCGATGACACGTACTCCCTCCATTACGGAGTCACCTAGTGCAG”, for which the binding signal was 9840 fluorescence intensity (a.u.).

As to “GCAGGCTCGCCTTGCACCACGTAGCCTTGCAGCCGCCACACGGAGTCACCTAGTGCAG”, the binding signal was 4120 fluorescence intensity (a.u.).

Regarding “CAGGAAAGATGTGCCACGTATACTGAGTTTGACTCGTTCACGGAGTCACCTAGTGCAG”, the binding signal was 10600 fluorescence intensity (a.u.).

In the case of “GGCGGCGTCGTCTCTTTCTCTCTCTCTCTGTGCATGGTGGCGGAGTCACCTAGTGCAG”, the binding signal was 3510 fluorescence intensity (a.u.).

Regarding “GACTTATGACCTCTAATCCCAACTACAGGTCTACAGCGATCGGAGTCACCTAGTGCAG”, the binding signal is 35000 fluorescence intensity (a.u.). On to “TCTAGCTAGCACCATAAGGTGATAGACTAACCAGCCCGATCGGAGTCACCTAGTGCAG”, for which the binding signal was 31400 fluorescence intensity (a.u.).

Regarding “TAGTAGATCTAGTATTTTATCTTTAGTCCATCTACCGAGCCGGAGTCACCTAGTGCAG”, the binding signal was 28500 fluorescence intensity (a.u.). With “TCACCCATATAAGAACACACAAGAGGAGAAGAGAAGGGAACGGAGTCACCTAGTGCAG” the figure was 3540 fluorescence intensity (a.u.). Regarding “GGGAAGAGAGAAGAGACGAAACAGGGAGGAGGGGATTGGGCGGAGTCACCTAGTGCAG”, the binding signal is 3320 fluorescence intensity (a.u.). As for “AATTGCTGGGTACAATCCAAAGTCAGATATGATGTGTTGTCGGAGTCACCTAGTGCAG”, the binding signal was 3350 fluorescence intensity (a.u.). For the sequence “CCATATGTTCCAGGTCAGGATATGTACTCCACTTTCATGCCGGAGTCACCTAGTGCAG”, the binding signal is 3580 fluorescence intensity (a.u.). On to “GATTGATCGCCAGAAATCGCATGCAGTATAGTGTGAAGTTCGGAGTCACCTAGTGCAG”, for which the binding signal was 22900 fluorescence intensity (a.u.). With “CCTCACTTTCACTCCACACGTACAACTCAGCTCATTCCACCGGAGTCACCTAGTGCAG” the figure was 3280 fluorescence intensity (a.u.); with “AAACATAAATCAAAATTTAGAAGTTAAAGAAACCCAGATTCGGAGTCACCTAGTGCAG”, 18900 fluorescence intensity (a.u.); with “AGTGCCATCAGCTCAGTAGATGTGTTGCCGTGTTGGTGTCCGGAGTCACCTAGTGCAG”, 3910 fluorescence intensity (a.u.). As for “ATTCTAAAATCATGATGCTGATCTCGGCGTGACGTGTTGGCGGAGTCACCTAGTGCAG”, the binding signal was 6630 fluorescence intensity (a.u.). Take “AGTGGTGGTGAAGTGGGTGAGAAACTATCTTCTGTTCCTCCGGAGTCACCTAGTGCAG”: the binding signal is 3900 fluorescence intensity (a.u.). With “GGTGCGTCACCCGTGGCGCCAGCGTCAAGGCTGTGGACCACGGAGTCACCTAGTGCAG” the figure was 5440 fluorescence intensity (a.u.); with “AAAAGGGATGACGATATTAAGTGCAAATGAATTTGGATCACGGAGTCACCTAGTGCAG”, 3200 fluorescence intensity (a.u.). With “CTTCTAATTAGAGACTTGGTGTGTCACATAGTCGTCAGGTCGGAGTCACCTAGTGCAG”, the binding signal was 3150 fluorescence intensity (a.u.). On to “CCAACGTCGTACATCCCTCCACGTCATCGATCCGCGCCGCCGGAGTCACCTAGTGCAG”, for which the binding signal was 35200 fluorescence intensity (a.u.). As to “TAAGATCTTGTTGTGAAGATTTAATTGTAACAAACACAATCGGAGTCACCTAGTGCAG”, the binding signal is 17600 fluorescence intensity (a.u.). With “ATCATCTCGTCTCGTCAGTCAAATCATCATTTGGTCAACACGGAGTCACCTAGTGCAG”, the binding signal was 3360 fluorescence intensity (a.u.).

Take “AACAACTGTACTAATTGGGCTGCTGTCCTGACTGACTCAGCGGAGTCACCTAGTGCAG”: the binding signal was 6980 fluorescence intensity (a.u.). On to “AGCTTCCGTCAAGTAGCGATTAAACAGGCCCTATGAAGATCGGAGTCACCTAGTGCAG”, for which the binding signal was 27700 fluorescence intensity (a.u.).

On to “GGCTGGCGACGCCAAGGTGATGGCAGCGGCGGCGGTTATGCGGAGTCACCTAGTGCAG”, for which the binding signal is 3520 fluorescence intensity (a.u.). On to “GTCGTGCTAGCTCGATCCATTTCCTACGTGTGCACCAAACCGGAGTCACCTAGTGCAG”, for which the binding signal is 5810 fluorescence intensity (a.u.).
